Construct, isoform or probe ends are uncertain for at least one entry. Tags and fusion partners may be left off the protein sequences shown.
Key:
[1] = molecular target: T1, rEhTBP (TATA-box binding protein) (Entamoeba histolytica) (UniProt P52653); experiment: competition with a labelled probe; details: 200-fold excess vs GAAC-box probe; EMSA: 12 mM Hepes pH 7.9, 60 mM KCl, 1 mM each DTT, EDTA, spermidine and MgCl2, 10% glycerol, poly(dG-dC) 1 ug/ul, 10 min at 4 C; probe 557 pM (TATA); recombinant protein; protein details: His tag; label: 5'-32P
T1 sequence (looked up, limits assumed): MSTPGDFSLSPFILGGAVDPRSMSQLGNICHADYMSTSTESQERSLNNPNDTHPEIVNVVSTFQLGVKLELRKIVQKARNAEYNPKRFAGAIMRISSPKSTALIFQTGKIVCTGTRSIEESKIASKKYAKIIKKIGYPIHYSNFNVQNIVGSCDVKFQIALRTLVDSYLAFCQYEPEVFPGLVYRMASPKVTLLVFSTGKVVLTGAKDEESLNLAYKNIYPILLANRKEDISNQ

[2] = molecular target: T2, rEhTRF1 (TBP-related factor 1) (Entamoeba histolytica) (UniProt A7UFC2); experiment: competition with a labelled probe; details: 200-fold excess vs GAAC-box probe; EMSA: 12 mM Hepes pH 7.9, 60 mM KCl, 1 mM each DTT, EDTA, spermidine and MgCl2, 10% glycerol, poly(dG-dC) 1 ug/ul, 10 min at 4 C; probe 557 pM (TATA); recombinant protein; protein details: His tag; label: 5'-32P
T2 sequence (looked up, limits assumed): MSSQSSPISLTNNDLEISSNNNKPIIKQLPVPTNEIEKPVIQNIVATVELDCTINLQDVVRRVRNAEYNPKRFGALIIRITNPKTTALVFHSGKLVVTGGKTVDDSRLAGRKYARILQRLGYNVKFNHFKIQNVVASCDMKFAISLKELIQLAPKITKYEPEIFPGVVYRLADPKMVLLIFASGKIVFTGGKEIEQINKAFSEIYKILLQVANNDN

“AATTCTCTATTTAAAGAGAATT (double strand) [TATTTAAA (1)]”: binds [1]; binds [2].

Source: publication PMC5842622, “The Entamoeba histolytica TBP and TRF1 transcription factors are GAAC-box binding proteins, which display differential gene expression under different stress stimuli and during the interaction with ma”
